From PubChem BioAssay AID528 (NMMLSC, 2006)
Among all 24,000 compounds or so, fewer than 10 were called active. Inconclusive results, whose numbers are uncertain, are shown with a selection of clear calls.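 How the source made its calls: active means fluorescent ligand binding to cells raised by more than 40% of the manganese-induced maximum; inconclusive means compound's own fluorescence above 85% of the ligand control signal; inactive means the rest.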

Chains of the proteins cited; added tags and fusions are not shown.
UniProt P13612, whole entry, looked up: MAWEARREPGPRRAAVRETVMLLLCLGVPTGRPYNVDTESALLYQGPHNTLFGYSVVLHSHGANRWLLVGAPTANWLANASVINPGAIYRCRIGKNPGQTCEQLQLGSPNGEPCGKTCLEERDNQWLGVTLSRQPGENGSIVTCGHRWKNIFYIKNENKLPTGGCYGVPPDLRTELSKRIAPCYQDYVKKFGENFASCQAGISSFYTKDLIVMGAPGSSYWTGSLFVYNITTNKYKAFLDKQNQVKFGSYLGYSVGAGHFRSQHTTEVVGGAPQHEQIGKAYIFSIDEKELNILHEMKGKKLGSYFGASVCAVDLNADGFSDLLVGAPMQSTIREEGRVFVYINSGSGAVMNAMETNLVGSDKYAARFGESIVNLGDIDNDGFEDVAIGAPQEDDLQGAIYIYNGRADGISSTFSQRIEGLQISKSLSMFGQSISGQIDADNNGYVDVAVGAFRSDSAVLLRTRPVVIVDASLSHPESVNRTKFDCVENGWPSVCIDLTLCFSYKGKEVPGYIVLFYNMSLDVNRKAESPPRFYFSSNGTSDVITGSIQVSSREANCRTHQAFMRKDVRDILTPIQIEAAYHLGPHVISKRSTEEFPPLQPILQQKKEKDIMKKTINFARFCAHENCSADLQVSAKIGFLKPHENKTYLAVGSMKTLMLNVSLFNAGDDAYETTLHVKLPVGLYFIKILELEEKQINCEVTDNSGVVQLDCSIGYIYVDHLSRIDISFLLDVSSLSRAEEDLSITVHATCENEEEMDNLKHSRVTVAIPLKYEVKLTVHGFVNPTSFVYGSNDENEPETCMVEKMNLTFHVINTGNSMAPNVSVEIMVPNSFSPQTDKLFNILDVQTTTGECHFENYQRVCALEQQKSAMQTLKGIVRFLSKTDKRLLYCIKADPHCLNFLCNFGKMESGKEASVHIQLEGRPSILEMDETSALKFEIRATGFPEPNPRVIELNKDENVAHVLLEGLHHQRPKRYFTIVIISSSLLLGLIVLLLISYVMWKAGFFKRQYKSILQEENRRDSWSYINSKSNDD

These compounds were tested against Integrin alpha-4 (Homo sapiens) (UniProt P13612) (assay: enhancers of LDV-FITC binding to VLA-4 integrin, primary screen, Jurkat cells, flow cytometry (AID 528;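 on activation: 0% = ligand binding without compound and 100% = manganese-stimulated maximal binding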)). Details: stronger effect = higher value, screened at 10 µM (by protocol).

SMILES	activation
CC(=O)c1ccc(NC2OC(C)C(O)C(O)C2O)cc1 (stereo not drawn)	inactive: 0%
CCOc1ccc(NC(=O)CSc2nnc(Cc3cccn3C)n2-c2ccc(F)cc2)cc1	inconclusive
COc1cccc(-n2c(SCC(=O)NCCC3=CCCCC3)nc3n[nH]c(C)c3c2=N)c1	inconclusive
CCCCOC(=O)Nc1cc(C(=O)OC)ccc1C(=O)OC	inactive: 2%
Cn1c(=O)c(=O)n(C)c2cc(S(=O)(=O)N3CCN(Cc4ccccc4)CC3)ccc21	inconclusive
COc1ccc(OC)c(C2CC(=O)c3c([nH]c(C(=O)OCC4CCCO4)c3C)C2)c1 (stereo not drawn)	inconclusive
CCN(CCNS(=O)(=O)c1ccc2c(c1)oc(=O)n2C)c1ccccc1	inconclusive
CC1=C(C(=O)NCc2ccc3c(c2)OCO3)C2(CCC(C)CC2)OC1=O (stereo not drawn)	inconclusive
Cc1ccc(-c2nc(C(=O)NC3CCCCCC3)no2)cc1	inactive: 4%
Cc1ccc(CSC2=Nc3ccccc3C3=NC(CC(=O)NCc4ccco4)C(=O)N23)cc1 (stereo not drawn)	inconclusive
Cc1ccc(CSC2=Nc3ccccc3C3=NC(CCC(=O)NCc4ccco4)C(=O)N23)cc1 (stereo not drawn)	inconclusive
Cc1cccc(CSC2=NCCN2C(=O)c2ccc(Br)o2)c1	inactive: -6%
O=C(CN1CCOCC1)NCC12CC3CC(CC(C3)C1)C2	inactive: 7%
Cc1ccc(S(=O)(=O)NC(C)C(c2cccs2)N2CCN(C)CC2)cc1 (stereo not drawn)	inactive: 3%
CCOC(=O)N1CCC(Nc2c(NCCN3CCN(c4cccc(Cl)c4)CC3)c(=O)c2=O)CC1	inconclusive
Cc1occc1-c1nnc(SCC(=O)N2CCOCC2)n1Cc1ccco1	inconclusive
CC(C)(C)C(=O)OCCn1c(=O)c2cc3c(=O)n(CCOC(=O)C(C)(C)C)c(=O)c3cc2c1=O	inconclusive
CCCN1CCN(C(=O)Cn2cccc2C(=O)c2ccccc2)CC1	inconclusive
CSc1nncn1/N=C/c1cc(Cl)ccc1F	inactive: -4%
OCC#CCSc1nnc(-c2ccc(Br)cc2)o1	inconclusive
COc1ccc(S(=O)(=O)N2CCN(CC(=O)Nc3cc(C(F)(F)F)ccc3Cl)CC2)cc1	inactive: 8%

An excerpt from above in order of formula weight, smallest number first.
SMILES	activation
CCCCOC(=O)Nc1cc(C(=O)OC)ccc1C(=O)OC	inactive: 2%
Cc1occc1-c1nnc(SCC(=O)N2CCOCC2)n1Cc1ccco1	inconclusive
Cc1ccc(CSC2=Nc3ccccc3C3=NC(CC(=O)NCc4ccco4)C(=O)N23)cc1 (stereo not drawn)	inconclusive

Following part.

SMILES	activation
COc1ccccc1NC(=O)Cn1nnc(C(=O)Nc2ccccc2)c1N	inconclusive
CCC(C)NC(=O)CS(=O)Cc1nc(-c2cccc(OC)c2)oc1C (stereo not drawn)	inconclusive
O=C1CC(c2ccc(F)c(Br)c2)C2=C(CCCC2=O)N1 (stereo not drawn)	inactive: 0%
COc1cccc(-c2cc(C(=O)Nc3cc(OC)c(OC)c(OC)c3)no2)c1	inconclusive
Cc1ccsc1C1C(C(=O)O)c2ccccc2C(=O)N1C (stereo not drawn)	inconclusive
CCS(=O)(=O)NC(C)C(c1cccs1)N1CCN(C)CC1 (stereo not drawn)	inconclusive
CCOc1ccc(C(=O)N2CCN=C2SC)cc1OCC	inconclusive
Cc1ccnc(N2C(=O)c3ccccc3C2Nc2cccc(C)c2C)c1 (stereo not drawn)	inconclusive
CCOC(=O)c1c(C(=O)OCC)c(C)n(N2C(=O)CSC2=S)c1C	inconclusive
O=C(c1cc2ccccc2cc1OCC(O)CN1CCCCC1)N1CCCCC1 (stereo not drawn)	inconclusive
COc1ccc(NC(=O)C2C(=O)NC3(C)CC2c2ccccc2O3)cc1 (stereo not drawn)	inactive: 1%
CCOC(=O)c1c(-c2cccs2)csc1NC(=O)CCCC(=O)O	inconclusive
Cc1cc(C(=O)Nc2sc3c(c2C#N)CCC(C(C)(C)C)C3)no1 (stereo not drawn)	inconclusive
COc1ccc2cnn(-c3ccccc3C)c(=O)c2c1OC	inactive: -2%
COc1ccccc1-c1cc(C(=O)N2CCN(c3ccccc3OC)CC2)no1	inactive: -7%
COc1ccccc1-n1c(SCC(=O)Nc2ccccc2F)nc2[nH]ncc2c1=O	inconclusive
CCC(=O)N1CCc2cc(S(=O)(=O)CCC(=O)O)ccc21	inactive: -1%
COc1ccc(N2CC(O)=C(c3nc4ccccc4s3)C2=N)c(OC)c1	inconclusive
O=C1c2ccccc2NC(c2cnc3ccccc3n2)N1O (stereo not drawn)	inconclusive
CN(C)CCNC(=O)Cc1c(C(=O)O)n(C)c2ccccc12	inconclusive
CCCSc1nnc(NC(=O)c2sc3nc(-c4cccs4)ccc3c2N)s1	inconclusive

SMILES	activation
CC(C)(C)n1ncc2c(=O)n(CC(=O)c3ccc(Cl)cc3)cnc21	inconclusive
Cc1ccc(CSC2=NCCN2C(=O)C2CC2)cc1	inactive: 0.7%
CCOc1ccc(C(=O)Nc2cccc(-c3nc4cccnc4o3)c2)cc1Cl	inconclusive
COc1cccc(OCC(=O)Nc2c(C(=O)Nc3ccc(OC)cc3OC)oc3ccccc23)c1	inactive: 1%
CCCc1cc(=O)oc2cc3oc(C)c(C)c3cc12	inconclusive
Cc1ccc2c(c1)NC(=O)C(CC(=O)NCCCN1CCN(C3CCCCC3)CC1)O2 (stereo not drawn)	inconclusive
CC(=O)Nc1nc2c(c3c1c(=O)oc1ccccc13)CC(C)CC2 (stereo not drawn)	inconclusive
O=C(CSc1ncnc2ccccc12)N1CCN(c2ccccc2)CC1	inconclusive
COc1cc(/C=C/C(=O)CC(=O)/C=C/c2ccc(O)c(OC)c2)ccc1O	inconclusive
CC1=C(C(=O)NCCN2CCOCC2)C2(CCC(C)CC2)OC1=O (stereo not drawn)	inconclusive
CCOC(=O)N1CCC(NC(=O)CSCc2nc(-c3sccc3C)oc2C)CC1	inconclusive
CCSc1nc2c(c(=O)[nH]1)C(c1ccncc1)C(C(=O)OC)=C(C)N2 (stereo not drawn)	inconclusive
OCCCc1nc2n(n1)C(c1ccccc1Cl)C=C(c1cccs1)N2 (stereo not drawn)	inconclusive
Cn1c(C(=O)NCCCN2CCN(c3ccccc3F)CC2)cc2c(=O)[nH]c3ccccc3c21	inconclusive
CCOc1cc2[nH]c(=O)n(CCCCC(=O)NC3CCCCC3)c(=O)c2cc1OCC	inactive: -18%
CCc1ccccc1N(CC)C(=O)CCc1nc(-c2ccc(C)cc2)no1	inconclusive
COc1cccc(C(=O)Nc2c3c(nn2-c2cccc(C)c2C)CS(=O)(=O)C3)c1OC	inactive: -3%
O=C(/C=C/N1CCOCC1)c1ccc(-c2ccccc2)cc1	inconclusive
COc1ccc(-n2nnc3c(SCC(=O)c4ccccc4)ncnc32)cc1	inconclusive
COC(=O)C(Cc1cncn1COCc1ccccc1)NC(=O)OC(C)(C)C (stereo not drawn)	inconclusive
CCN(Cc1ccccc1)C(=O)CC1Oc2ccccc2NC1=O (stereo not drawn)	inconclusive
